The values that follow come from patent publication US7132252B2, “Methods for detecting the interaction of compounds with cytochrome P450 using optical molecular sensors” (Invitrogen Corporation, priority 1998, dated 2006).

Chains of the proteins cited; added tags and fusions are not shown.
UniProt P08684, whole entry: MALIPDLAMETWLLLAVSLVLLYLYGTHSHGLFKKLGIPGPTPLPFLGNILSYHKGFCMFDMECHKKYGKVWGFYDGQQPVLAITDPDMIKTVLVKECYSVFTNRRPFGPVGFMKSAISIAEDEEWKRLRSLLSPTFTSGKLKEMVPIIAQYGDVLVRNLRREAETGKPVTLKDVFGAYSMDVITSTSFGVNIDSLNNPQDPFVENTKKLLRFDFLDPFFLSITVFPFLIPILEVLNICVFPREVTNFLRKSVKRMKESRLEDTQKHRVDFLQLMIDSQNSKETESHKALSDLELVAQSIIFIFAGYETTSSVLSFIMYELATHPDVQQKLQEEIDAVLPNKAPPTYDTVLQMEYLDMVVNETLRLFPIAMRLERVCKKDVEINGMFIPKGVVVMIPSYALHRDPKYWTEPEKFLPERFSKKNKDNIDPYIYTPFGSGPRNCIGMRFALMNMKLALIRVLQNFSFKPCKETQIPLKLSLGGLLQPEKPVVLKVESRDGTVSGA

The target of data set [1] is T1, CYP3A4 (Homo sapiens, UniProt P08684). Description: in vitro. To be noted: pH 8, % inhibition; for inhibition at 20 min, 10 µM: Condition A; for inhibition at 40 min, 10 µM: Condition B.
The target in data set [2] is T1, CYP3A4.

As usually defined, the inhibition is the drop in the measured response relative to a control, in per cent. A lower inhibition goes with a response near the control.

`CN1CCC[C@@H]1CCO[C@](C)(c1ccccc1)c1ccc(Cl)cc1` [Clemastine]: the values for the inhibition at 20 min, 10 µM in data set [1] (substrate BOMCC), in data set [1] (substrate BOMR) and in data set [1] (substrate DBOMF) were 82%, 62% and 32%, respectively. Moreover, the inhibition at 40 min, 10 µM was 95% in data set [1] (substrate BOMCC), 85% in data set [1] (substrate BOMR) and 80% in data set [1] (substrate DBOMF). Also, the “metabolism-dependent inhibitory activity against the CYP3A4 isozyme” value in data set [2] is “at least partial metabolism-dependent inhibitory activity”.

Consider `CCN(CC)CCOC(=O)C1(C2CCCCC2)CCCCC1` [Dicyclomine], for which the inhibition at 20 min, 10 µM was 76% in data set [1] (substrate BOMCC), 77% in data set [1] (substrate BOMR) and 30% in data set [1] (substrate DBOMF). The “metabolism-dependent inhibitory activity against the CYP3A4 isozyme” value in data set [2] is recorded as “at least partial metabolism-dependent inhibitory activity”.
